Measured data: PubChem BioAssay AID504793 (Drosophila RNAi Screening Center, 2011)
The screen tested about 23,000 reagents; this is a random part of those with a known target gene and a result. Over the whole deposit, 62 (0.27%) are marked active. 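Calls come from follow-up tests whose scores are not deposited, so confirmed genes may have low counts here; counts are not normalised per plate.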 Raw values are not corrected between plates. Unmarked entries are inactive.

- Test: 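Genes required for cells to halt at G2/M after double-strand DNA breaks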 (primary screen)
- System: Drosophila S2R+ cells
- Reagents: long dsRNA against Drosophila genes, about 0.25 µg dsRNA per well
- Time to read-out: 4 days of dsRNA, then 4 hours of drug before read-out
- Challenge: doxorubicin 0.5 µM for 4 hours to cause double-strand breaks, in cells also given a low, harmless dose of dsRNA against nbs to sensitise the assay
- Measurement: 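Mitotic index as the number of phospho-histone H3-positive cells in each well following doxorubicin, given as raw counts without normalisation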
- Scale: mitotic cells: higher = more cells in mitosis, weaker G2 arrest
- Rule for the call: 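Genes are called active only when high mitotic counts were reproduced with independent dsRNAs and mitosis was checked for delay without damage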
- Meaning of the calls: active = confirmed in follow-up tests; inactive = not confirmed

CG14253 [DRSC14748]: mitotic cells, replicate 1 = 6
Rab4 [DRSC07524]: mitotic cells, replicate 1 = 7
CG46301 [DRSC01916]: mitotic cells, replicate 1 = 10; mitotic cells, replicate 2 = 14
CG46301 [DRSC25566]: mitotic cells, replicate 1 = 4
CG12773 [DRSC18580]: mitotic cells, replicate 1 = 3
CG12773 [DRSC24900]: mitotic cells, replicate 1 = 1
CG16890 [DRSC01890]: mitotic cells, replicate 1 = 7
CG16890 [DRSC29892]: mitotic cells, replicate 1 = 7
eIF3f2 [DRSC04903]: mitotic cells, replicate 1 = 4
ORMDL [DRSC11737]: mitotic cells, replicate 1 = 12
ORMDL [DRSC27778]: mitotic cells, replicate 1 = 6
PGRP-SA [DRSC19420]: mitotic cells, replicate 1 = 10
CG6813 [DRSC16122]: mitotic cells, replicate 1 = 3
Taf12 [DRSC16879]: mitotic cells, replicate 1 = 9
Taf12 [DRSC28181]: mitotic cells, replicate 1 = 4
CG31664 [DRSC22084]: mitotic cells, replicate 1 = 5
CG17994 [DRSC04877]: mitotic cells, replicate 1 = 6
Yif1 [DRSC15817]: mitotic cells, replicate 1 = 15
CG32301 [DRSC08613]: mitotic cells, replicate 1 = 8
betaNACtes1 [DRSC19534]: mitotic cells, replicate 1 = 11
betaNACtes1 [DRSC26176]: mitotic cells, replicate 1 = 5
CG2681 [DRSC18464]: mitotic cells, replicate 1 = 4
CG2681 [DRSC24864]: mitotic cells, replicate 1 = 5
kel [DRSC03554]: mitotic cells, replicate 1 = 5
asl [DRSC12319]: mitotic cells, replicate 1 = 9
mrj [DRSC22592]: mitotic cells, replicate 1 = 8
mrj [DRSC25295]: mitotic cells, replicate 1 = 4
Trs31 [DRSC05975]: mitotic cells, replicate 1 = 6
CG30394 [DRSC04074]: mitotic cells, replicate 1 = 3
CG30394 [DRSC04260]: mitotic cells, replicate 1 = 3
CG3277 [DRSC00588]: mitotic cells, replicate 1 = 4
grim [DRSC23169]: mitotic cells, replicate 1 = 7
CG7059 [DRSC16187]: mitotic cells, replicate 1 = 10
CG7059 [DRSC28990]: mitotic cells, replicate 1 = 3
